Measurements: PubChem BioAssay AID1487 (National Center for Advancing Translational Sciences (NCATS), 2009)
The list shows a part of the results. The main result of the screen is listed elsewhere. These columns were measured beside it and carry no call. Most of these compounds were active or inconclusive in the main read-out, so they are no random draw. Words in brackets tell the shape of the fitted curve; partial curves, single points and poor fits give uncertain potencies.

Assay: qHTS Assay for Modulators of Lamin A Splicing
Conditions: HeLa LMNA splicing GFP/RFP minigene ratio, 48 h
Outline: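 Read-out is the ratio of GFP to DsRed2 object intensity, acquired by 488 nm laser-scanning cytometry on HeLa lamin A-EGFP minigene reporter cells. Compound incubation 48 hrs at 37 °C in Opti-MEM with 2% FBS; DMSO 0.5% final.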

[1] = measured here: GFP splicing reporter channel
[2] = measured here: RFP viability control channel

Compound | AC50 [1] | AC50 [2]
COc1ccc(C(=O)NCC(=O)OCc2cc(=O)n3nc(C4CCCCC4)sc3n2)cc1 | 4.47 µM [falling, partial curve, poor fit] | 
Nc1ccc2nc(SCc3cccc(F)c3)sc2c1 | 1.12 µM [rising, partial curve] | 
Cc1ccc(N2C(=O)c3cccc4c(N5CCN(C)CC5)ccc(c34)C2=O)c2cccnc12 |  | 20 µM [rising, single point]
CCOC(=O)c1c(/N=C/c2cccc([N+](=O)[O-])c2O)sc(C)c1C |  | 17.8 µM [rising, single point]
CC(C)OC(=O)CSc1nc(N)c(C#N)cc1C#N | 0.141 µM [falling, partial curve, poor fit] | 25.1 µM [falling, partial curve, poor fit]
COC(=O)C(NNc1ccccc1C)(NC(=O)c1ccc(F)cc1)C(F)(F)F (centres undefined) | 35.5 µM [rising, single point] | 25.1 µM [rising, single point]
CSCc1cc(N2CCOCC2)nc(-c2ccccc2)n1 | 0.00447 µM [falling, full curve, poor fit] | 0.00355 µM [falling, full curve, poor fit]
CCCCNC(=O)CSc1nc2ccc(N3CCOCC3)cc2c(=O)n1CCc1ccccc1 |  | 20 µM [rising, partial curve]
CCCOc1ccc(Cc2nc(N)nc(N)n2)cc1 |  | 14.1 µM [rising, single point]
Cc1cc(C(=O)CSc2nnnn2C)c(C)n1-c1ccc2c(c1)OCCO2 |  | 35.5 µM [rising, single point]
CCOc1ccc(NC(=O)Cn2nnc(C(=O)NCCc3ccc(OC)c(OC)c3)c2N)cc1 |  | 0.0708 µM [falling, full curve, poor fit]
COc1ccc(S(=O)(=O)Nc2ccccc2-c2nnn(CC(=O)Nc3ccccc3OC)n2)cc1 | 5.01 µM [rising, full curve, poor fit] | 5.01 µM [rising, full curve]
CN(C)S(=O)(=O)c1cccc(C(=O)Nc2ccccc2[N+](=O)[O-])c1 | 35.5 µM [rising, single point] | 25.1 µM [rising, single point]
COc1cc(N=c2ssnc2Cl)c(OC)cc1Cl | 10 µM [rising, partial curve, poor fit] | 
Cc1cc(C)c2c(N)c(C(=O)c3ccc(Cl)cc3Cl)sc2n1 |  | 22.4 µM [rising, single point]
COc1ccccc1C(=O)OCC(=O)Nc1ccc(Cl)cn1 | 0.02 µM [rising, full curve, poor fit] | 
O=C(c1cccs1)c1ccc(-c2cccs2)s1 |  | 11.2 µM [rising, partial curve]

Compound | AC50 [1] | AC50 [2]
CC(C)c1ccc(NC(=S)NC2CCN(Cc3ccccc3)CC2)cc1 |  | 35.5 µM [rising, single point]
CCCCn1c(-c2csc(C(C)C)c2)n[nH]c1=S | 11.2 µM [rising, single point] | 12.6 µM [rising, single point]
O=C(CCCN1C(=O)c2ccccc2C1=O)N1CCc2ccccc2C1 | 2.24 µM [rising, full curve, poor fit] | 3.16 µM [rising, partial curve]
Cc1cc(Cl)ccc1N(CC(=O)NCc1ccc2c(c1)OCO2)S(C)(=O)=O | 0.0224 µM [rising, full curve, poor fit] | 7.08 µM [rising, partial curve, poor fit]
Cc1ccc(NC(=O)CS(=O)(=O)c2c[nH]c3ccccc23)c(C)c1 | 15.8 µM [rising, single point] | 15.8 µM [rising, single point]
O=S(=O)(Nc1ccc2c(c1)nc1n2CCN(Cc2ccccc2)C1)c1ccc(Cl)cc1 | 3.55 µM [rising, full curve, poor fit] | 12.6 µM [rising, partial curve]
C=CCn1c(SCc2cc(C(C)=O)ccc2OCC)nc2ccccc2c1=O | 10 µM [rising, partial curve] | 4.47 µM [rising, partial curve]
COC(=O)c1[nH]c2cc(C)ccc2c1NC(=O)CN1CCc2cc(OC)c(OC)cc2C1 | 12.6 µM [rising, single point] | 11.2 µM [rising, partial curve]
COc1ccc(NC(=O)c2cc3nc(-c4ccccc4)cc(-c4ccccc4)n3n2)c(OC)c1 | 17.8 µM [rising, partial curve, poor fit] | 5.62 µM [rising, partial curve]
COc1ccc(-n2cc3c(-c4cccc(Br)c4)nnc(C)c3n2)cc1 |  | 12.6 µM [rising, partial curve]
Cc1ccc(C)c(N2CCN(C(=O)c3ccc(NS(=O)(=O)c4c(C)noc4C)cc3)CC2)c1 | 1.78 µM [rising, partial curve, poor fit] | 11.2 µM [rising, partial curve]
CCN(CC)CCNC(=O)c1cc2c(-c3ccc(Cl)cc3)nn(C)c2s1 |  | 22.4 µM [rising, single point]
CC(=O)Nc1nc2ccc(C(=O)NC3CCCCC3)cc2s1 | 20 µM [rising, partial curve, poor fit] | 11.2 µM [rising, partial curve, poor fit]
CC(=O)Nc1ccc(S(=O)(=O)Nc2nc3ccccc3nc2Nc2ccc3ccccc3c2)cc1 |  | 22.4 µM [rising, single point]
CC(NC(=O)C1CCCC1)C1CC2CCC1C2 (centres undefined) | 0.0178 µM [falling, full curve, poor fit] | 0.0141 µM [falling, full curve, poor fit]
COc1ccc(C2C(C(=O)N3CCN(c4ccccn4)CC3)CC(=O)N2c2ccc(OC)cc2)cc1 (centres undefined) |  | 11.2 µM [rising, partial curve, poor fit]

Of the compounds above, these have a nitro group on carbon:
Compound | AC50 [1] | AC50 [2]
CCOC(=O)c1c(/N=C/c2cccc([N+](=O)[O-])c2O)sc(C)c1C |  | 17.8 µM [rising, single point]
CN(C)S(=O)(=O)c1cccc(C(=O)Nc2ccccc2[N+](=O)[O-])c1 | 35.5 µM [rising, single point] | 25.1 µM [rising, single point]
